According to the supplement of paper PMC12067093, “Discovery and optimisation of a covalent ligand for TRIM25 and its application to targeted protein ubiquitination” (Chemical Science, 2025):
The list shows a part of the results.

Amino acid sequences for entries named in this document (tags omitted). A change or cut given only in a name is not applied to a line headed by its entry.
UniProt P33240: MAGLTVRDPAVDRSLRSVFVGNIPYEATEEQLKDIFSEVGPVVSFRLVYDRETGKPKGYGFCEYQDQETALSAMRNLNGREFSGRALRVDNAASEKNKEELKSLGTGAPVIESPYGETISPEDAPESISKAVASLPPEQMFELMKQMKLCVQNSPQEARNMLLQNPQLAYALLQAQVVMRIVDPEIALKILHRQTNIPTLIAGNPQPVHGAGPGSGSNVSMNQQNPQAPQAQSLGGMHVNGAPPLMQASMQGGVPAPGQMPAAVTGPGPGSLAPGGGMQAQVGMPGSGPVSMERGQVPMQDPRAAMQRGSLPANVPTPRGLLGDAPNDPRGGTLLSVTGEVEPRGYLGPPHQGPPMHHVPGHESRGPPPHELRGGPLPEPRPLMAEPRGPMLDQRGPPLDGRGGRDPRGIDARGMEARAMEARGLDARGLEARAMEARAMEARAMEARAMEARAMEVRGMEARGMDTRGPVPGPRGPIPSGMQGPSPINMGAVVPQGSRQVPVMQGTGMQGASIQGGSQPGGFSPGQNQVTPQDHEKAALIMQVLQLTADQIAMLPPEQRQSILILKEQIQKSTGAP
UniProt Q9UKG9: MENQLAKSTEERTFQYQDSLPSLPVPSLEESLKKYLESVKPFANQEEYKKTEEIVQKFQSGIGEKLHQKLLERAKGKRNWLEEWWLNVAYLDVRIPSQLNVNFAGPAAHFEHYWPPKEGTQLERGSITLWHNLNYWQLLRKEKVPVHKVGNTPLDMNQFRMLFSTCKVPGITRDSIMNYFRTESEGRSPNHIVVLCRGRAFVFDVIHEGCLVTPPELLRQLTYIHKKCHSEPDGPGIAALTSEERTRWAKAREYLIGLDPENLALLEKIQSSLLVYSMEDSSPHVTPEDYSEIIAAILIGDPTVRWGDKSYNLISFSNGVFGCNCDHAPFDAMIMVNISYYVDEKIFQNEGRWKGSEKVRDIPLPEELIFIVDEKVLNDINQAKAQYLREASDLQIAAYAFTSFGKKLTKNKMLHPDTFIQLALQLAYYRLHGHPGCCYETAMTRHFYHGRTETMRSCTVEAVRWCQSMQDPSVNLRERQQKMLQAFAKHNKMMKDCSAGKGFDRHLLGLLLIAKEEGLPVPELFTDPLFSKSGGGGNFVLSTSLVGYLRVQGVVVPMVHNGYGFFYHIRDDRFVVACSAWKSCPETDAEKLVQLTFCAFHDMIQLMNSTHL
UniProt O75534: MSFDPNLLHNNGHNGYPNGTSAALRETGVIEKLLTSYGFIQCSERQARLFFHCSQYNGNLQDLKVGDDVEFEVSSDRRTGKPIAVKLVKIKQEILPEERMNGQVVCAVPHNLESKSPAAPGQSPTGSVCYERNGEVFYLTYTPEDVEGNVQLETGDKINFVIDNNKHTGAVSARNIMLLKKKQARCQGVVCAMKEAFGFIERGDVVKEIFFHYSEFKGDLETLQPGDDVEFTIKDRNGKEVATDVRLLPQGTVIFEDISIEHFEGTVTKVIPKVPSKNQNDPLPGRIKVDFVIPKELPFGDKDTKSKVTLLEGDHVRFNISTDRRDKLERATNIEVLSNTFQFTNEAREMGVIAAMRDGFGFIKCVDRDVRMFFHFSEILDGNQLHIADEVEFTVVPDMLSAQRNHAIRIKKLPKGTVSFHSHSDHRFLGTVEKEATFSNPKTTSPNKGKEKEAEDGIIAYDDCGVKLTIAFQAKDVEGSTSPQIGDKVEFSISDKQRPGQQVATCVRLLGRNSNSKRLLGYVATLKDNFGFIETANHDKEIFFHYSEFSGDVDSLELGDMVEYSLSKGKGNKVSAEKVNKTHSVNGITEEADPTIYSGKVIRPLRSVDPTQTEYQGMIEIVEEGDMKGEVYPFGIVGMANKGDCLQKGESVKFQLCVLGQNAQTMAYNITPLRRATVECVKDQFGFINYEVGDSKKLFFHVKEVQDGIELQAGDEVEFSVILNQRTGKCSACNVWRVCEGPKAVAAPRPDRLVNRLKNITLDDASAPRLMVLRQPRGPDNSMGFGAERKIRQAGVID
UniProt P48730: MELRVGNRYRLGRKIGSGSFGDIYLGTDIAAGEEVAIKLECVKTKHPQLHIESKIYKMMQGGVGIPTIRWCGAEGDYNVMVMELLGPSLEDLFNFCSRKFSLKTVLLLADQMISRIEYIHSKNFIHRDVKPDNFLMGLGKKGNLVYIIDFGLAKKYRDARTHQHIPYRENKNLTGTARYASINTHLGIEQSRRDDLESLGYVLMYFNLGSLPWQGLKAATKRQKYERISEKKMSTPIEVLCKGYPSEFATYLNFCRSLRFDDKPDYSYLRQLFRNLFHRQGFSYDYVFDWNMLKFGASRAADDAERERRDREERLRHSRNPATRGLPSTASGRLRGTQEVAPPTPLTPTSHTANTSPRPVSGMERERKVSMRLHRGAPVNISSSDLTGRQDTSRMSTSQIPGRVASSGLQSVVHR
UniProt P41240: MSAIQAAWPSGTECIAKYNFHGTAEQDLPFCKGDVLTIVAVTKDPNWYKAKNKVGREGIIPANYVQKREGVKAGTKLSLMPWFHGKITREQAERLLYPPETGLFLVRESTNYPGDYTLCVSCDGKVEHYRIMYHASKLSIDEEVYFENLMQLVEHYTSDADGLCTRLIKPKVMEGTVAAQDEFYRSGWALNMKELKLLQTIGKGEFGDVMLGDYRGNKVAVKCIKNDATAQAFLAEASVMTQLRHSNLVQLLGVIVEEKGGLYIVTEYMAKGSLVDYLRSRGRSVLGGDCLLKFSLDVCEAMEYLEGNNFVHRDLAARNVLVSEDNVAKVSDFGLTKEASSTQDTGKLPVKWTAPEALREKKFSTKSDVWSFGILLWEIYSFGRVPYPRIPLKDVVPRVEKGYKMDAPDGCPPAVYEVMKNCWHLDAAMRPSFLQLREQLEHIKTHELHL
UniProt Q9ULV4, whole entry, looked up: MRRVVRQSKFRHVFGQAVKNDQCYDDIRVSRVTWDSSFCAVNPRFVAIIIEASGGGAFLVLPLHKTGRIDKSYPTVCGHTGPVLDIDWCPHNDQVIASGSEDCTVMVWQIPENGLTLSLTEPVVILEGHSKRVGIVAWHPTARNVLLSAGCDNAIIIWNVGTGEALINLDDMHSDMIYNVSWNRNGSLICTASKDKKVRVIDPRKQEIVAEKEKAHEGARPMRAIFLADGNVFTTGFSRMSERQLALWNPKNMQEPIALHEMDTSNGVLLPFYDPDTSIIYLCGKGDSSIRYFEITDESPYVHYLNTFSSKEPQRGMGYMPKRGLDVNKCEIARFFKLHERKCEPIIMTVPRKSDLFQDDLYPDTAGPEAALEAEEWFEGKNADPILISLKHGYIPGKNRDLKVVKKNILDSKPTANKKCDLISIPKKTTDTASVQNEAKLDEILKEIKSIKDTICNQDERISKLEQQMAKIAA
UniProt Q6UXH1: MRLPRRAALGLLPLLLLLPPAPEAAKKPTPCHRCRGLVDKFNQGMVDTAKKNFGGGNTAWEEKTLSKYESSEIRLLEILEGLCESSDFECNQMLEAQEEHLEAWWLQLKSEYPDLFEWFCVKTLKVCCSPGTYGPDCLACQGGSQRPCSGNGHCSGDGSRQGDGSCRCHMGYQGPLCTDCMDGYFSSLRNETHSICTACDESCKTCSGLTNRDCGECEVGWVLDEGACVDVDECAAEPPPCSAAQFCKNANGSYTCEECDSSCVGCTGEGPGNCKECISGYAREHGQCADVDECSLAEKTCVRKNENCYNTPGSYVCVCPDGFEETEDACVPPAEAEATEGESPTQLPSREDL
UniProt O95639, whole entry, looked up: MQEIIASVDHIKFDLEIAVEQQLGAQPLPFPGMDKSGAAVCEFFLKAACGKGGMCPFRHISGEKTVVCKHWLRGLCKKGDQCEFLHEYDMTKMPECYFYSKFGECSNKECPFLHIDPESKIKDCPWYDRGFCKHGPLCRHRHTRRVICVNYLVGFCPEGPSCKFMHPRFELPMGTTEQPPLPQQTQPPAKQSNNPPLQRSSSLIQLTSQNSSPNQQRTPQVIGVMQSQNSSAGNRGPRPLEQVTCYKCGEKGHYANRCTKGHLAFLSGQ
UniProt O75390: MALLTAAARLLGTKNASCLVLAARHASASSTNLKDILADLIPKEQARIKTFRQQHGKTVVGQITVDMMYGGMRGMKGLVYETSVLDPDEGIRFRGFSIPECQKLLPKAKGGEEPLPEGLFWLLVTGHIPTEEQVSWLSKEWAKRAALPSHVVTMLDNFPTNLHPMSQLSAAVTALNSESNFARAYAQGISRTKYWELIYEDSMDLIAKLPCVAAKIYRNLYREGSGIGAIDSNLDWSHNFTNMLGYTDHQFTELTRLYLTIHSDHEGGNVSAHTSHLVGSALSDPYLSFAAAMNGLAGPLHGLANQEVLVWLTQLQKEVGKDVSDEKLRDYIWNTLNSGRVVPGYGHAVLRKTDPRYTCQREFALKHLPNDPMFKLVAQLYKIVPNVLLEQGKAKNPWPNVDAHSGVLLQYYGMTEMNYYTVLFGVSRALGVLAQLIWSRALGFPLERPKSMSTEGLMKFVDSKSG
UniProt Q9BSW2: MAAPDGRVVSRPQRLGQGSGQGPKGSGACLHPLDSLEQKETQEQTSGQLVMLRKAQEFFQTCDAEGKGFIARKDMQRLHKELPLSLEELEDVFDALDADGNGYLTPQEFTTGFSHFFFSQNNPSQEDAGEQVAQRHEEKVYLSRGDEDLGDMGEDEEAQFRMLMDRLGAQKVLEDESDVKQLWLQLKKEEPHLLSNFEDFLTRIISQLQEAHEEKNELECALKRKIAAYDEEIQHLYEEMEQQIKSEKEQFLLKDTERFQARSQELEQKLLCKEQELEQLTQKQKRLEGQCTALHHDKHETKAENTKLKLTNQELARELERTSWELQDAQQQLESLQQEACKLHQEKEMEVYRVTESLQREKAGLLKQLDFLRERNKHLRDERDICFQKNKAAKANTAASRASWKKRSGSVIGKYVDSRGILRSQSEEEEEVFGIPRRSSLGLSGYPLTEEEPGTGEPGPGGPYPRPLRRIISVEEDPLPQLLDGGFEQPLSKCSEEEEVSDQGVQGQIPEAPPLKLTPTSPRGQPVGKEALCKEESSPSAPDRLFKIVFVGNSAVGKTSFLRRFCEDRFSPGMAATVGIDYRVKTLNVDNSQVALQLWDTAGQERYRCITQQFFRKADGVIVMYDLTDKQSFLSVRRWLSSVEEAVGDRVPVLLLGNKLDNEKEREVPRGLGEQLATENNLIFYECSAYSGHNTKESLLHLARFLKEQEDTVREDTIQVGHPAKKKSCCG
UniProt P36551: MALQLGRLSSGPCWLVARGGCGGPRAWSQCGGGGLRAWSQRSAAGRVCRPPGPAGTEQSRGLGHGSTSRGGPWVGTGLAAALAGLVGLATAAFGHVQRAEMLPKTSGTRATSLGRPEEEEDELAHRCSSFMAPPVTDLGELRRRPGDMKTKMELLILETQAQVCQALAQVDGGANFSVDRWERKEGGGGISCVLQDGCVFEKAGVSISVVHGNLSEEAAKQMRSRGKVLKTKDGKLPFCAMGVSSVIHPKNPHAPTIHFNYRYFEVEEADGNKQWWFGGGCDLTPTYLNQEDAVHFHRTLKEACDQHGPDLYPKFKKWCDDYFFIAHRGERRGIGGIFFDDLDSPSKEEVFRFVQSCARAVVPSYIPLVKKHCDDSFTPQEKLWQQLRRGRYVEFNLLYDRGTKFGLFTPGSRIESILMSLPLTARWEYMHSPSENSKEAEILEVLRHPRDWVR
UniProt Q9NRF8: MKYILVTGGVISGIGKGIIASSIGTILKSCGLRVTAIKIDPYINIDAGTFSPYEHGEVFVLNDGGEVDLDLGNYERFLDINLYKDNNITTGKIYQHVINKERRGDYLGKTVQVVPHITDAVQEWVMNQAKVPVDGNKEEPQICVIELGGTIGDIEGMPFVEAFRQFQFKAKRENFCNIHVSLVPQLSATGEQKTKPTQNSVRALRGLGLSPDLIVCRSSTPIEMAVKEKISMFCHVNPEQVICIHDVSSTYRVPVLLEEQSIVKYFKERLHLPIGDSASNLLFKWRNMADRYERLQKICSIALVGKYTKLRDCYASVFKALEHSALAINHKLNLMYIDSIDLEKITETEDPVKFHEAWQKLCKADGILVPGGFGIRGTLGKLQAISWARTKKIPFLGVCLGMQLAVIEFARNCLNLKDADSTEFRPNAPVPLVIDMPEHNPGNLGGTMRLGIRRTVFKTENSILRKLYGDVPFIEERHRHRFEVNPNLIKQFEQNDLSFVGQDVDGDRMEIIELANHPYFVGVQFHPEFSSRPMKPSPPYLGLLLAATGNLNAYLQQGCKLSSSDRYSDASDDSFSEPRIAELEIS
UniProt O95825: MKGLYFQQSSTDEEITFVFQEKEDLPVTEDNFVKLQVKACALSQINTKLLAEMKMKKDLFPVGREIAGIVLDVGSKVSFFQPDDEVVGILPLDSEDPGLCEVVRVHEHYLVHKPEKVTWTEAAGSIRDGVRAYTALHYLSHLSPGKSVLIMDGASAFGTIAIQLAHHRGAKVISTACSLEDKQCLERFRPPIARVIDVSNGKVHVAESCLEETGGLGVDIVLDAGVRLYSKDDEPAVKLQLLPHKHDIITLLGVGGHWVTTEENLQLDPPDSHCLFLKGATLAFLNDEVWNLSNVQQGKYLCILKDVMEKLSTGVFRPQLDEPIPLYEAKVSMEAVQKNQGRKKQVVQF

Compound: Cc1cc(ccc1-c1ccccc1)C(=O)N1CCCN(CC1)C(=O)CCl [compound 10]
Assay: probe-labelled cysteine peptide fold change vs DMSO (competition) (log2 fold change); higher = less target engagement (more negative = stronger competition)
Settings: THP-1, incubation time: 4 h
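Further: competitive profiling in live THP-1 cells: cysteine peptides tagged with an iodoacetamide desthiobiotin (IA-DTB) probe, intensity after compound treatment relative to DMSO-treated cells.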

Target | probe-labelled cysteine peptide fold change (10 µM) | probe-labelled cysteine peptide fold change (50 µM)
COX19_Q49B96_61_EYLECR (UniProt Q49B96) | -0.0134 | 0.219
CSTF2_P33240_150_LCVQNSPQEAR (UniProt P33240) | -0.0112 | -0.27
CORO7_P57737_389_VSLNPACR (UniProt P57737) | -0.217 | -0.0214
CROT_Q9UKG9_584_SCPETDAEK (UniProt Q9UKG9) | -0.0249 | 0.181
CSDE1_O75534_739_VCEGPK (UniProt O75534) | 0.00319 | -0.0903
CSNK1D_P48730_241_MSTPIEVLCK (UniProt P48730) | 0.0154 | -0.0426
CSK_P41240_290_SVLGGDCLLK (UniProt P41240) | 0.016 | -0.348
CPSF1_Q10570_1102_IELQEWEHVTCMK (UniProt Q10570) | 0.0314 | -0.201
CORO1C_Q9ULV4_39_VTWDSSFCAVNPR (UniProt Q9ULV4) | -0.158 | 0.202
CRELD1_Q96HD1_281_ACLGCMGAGPGR (UniProt Q96HD1) | -0.0368 | -0.0736
CTNNA1_P35221_116_AAAGEFADDPCSSVK (UniProt P35221) | -0.0526 | 0.276
CRELD2_Q6UXH1_31_KPTPCHR (UniProt Q6UXH1) | -0.00492 | 0.0721
CTBP2_P56545_60_DLATVAFCDAQSTQEIHEK (UniProt P56545) | -0.0727 | 0.155
CPSF4_O95639_110_ECPFLHIDPESK (UniProt O95639) | -0.0283 | -0.19
CTDNEP1_O95476_161_QHCTLELGSYIK (UniProt O95476) | 0.117 | 0.158
CS_O75390_101_GFSIPECQK (UniProt O75390) | -0.0186 | -0.0161
CRACR2A_Q9BSW2_220_NELECALK (UniProt Q9BSW2) | -0.0374 | -0.174
CPM_P14384_138_KPDCYYSIGR (UniProt P14384) | -0.113 | -0.0372
CPOX_P36551_373_HCDDSFTPQEK (UniProt P36551) | -0.186 | 0.0439
CTPS2_Q9NRF8_299_ICSIALVGK (UniProt Q9NRF8) | -0.0254 | 0.193
CSDE1_O75534_365_CVDRDVR (UniProt O75534) | 0.227 | 0.44
CRYZL1_O95825_177_VISTACSLEDK (UniProt O95825) | 0.171 | 0.171

Whole records, quoted from the list:
CRELD2_Q6UXH1_31_KPTPCHR (UniProt Q6UXH1) is entered as probe-labelled cysteine peptide fold change (10 µM): -0.00492; probe-labelled cysteine peptide fold change (50 µM): 0.0721
CS_O75390_101_GFSIPECQK (UniProt O75390) is entered as probe-labelled cysteine peptide fold change (10 µM): -0.0186; probe-labelled cysteine peptide fold change (50 µM): -0.0161
